# The list shows a part of the results.
# Protein sequences, listed by entry. Tags and fused reporters are not part of them.
# UniProt Q0JBA9, entry or part of it: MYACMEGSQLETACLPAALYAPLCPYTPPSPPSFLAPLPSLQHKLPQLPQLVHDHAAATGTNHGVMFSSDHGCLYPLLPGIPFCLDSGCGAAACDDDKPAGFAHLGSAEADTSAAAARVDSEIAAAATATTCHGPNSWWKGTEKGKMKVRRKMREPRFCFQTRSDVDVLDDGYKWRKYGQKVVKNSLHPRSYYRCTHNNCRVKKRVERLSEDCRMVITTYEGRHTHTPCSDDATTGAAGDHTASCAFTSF
# Target: OsWRKY34 (Oryza sativa, UniProt Q0JBA9 1-250)
# Assay: protein-binding microarray (RPBM); PBS, 2% BSA, 51.3 ng/ul salmon testes DNA, 50 uM zinc acetate, 200 nM TF, 25 C, 1 h; high values mean tight binding
# Details: protein: recombinant; tags: N-terminal polyhistidine and DsRed monomer fusion (pET32a); label: CyDye5-dUTP incorporated in the synthesized complementary strand; 3' TTTTT single-stranded linker to array surface; dsDNA, one strand shown
# Procedure, shortened: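 Polyhistidine-tagged DsRed fusions of transcription factors, joined at the N-terminus, were expressed in E. coli BL21-CodonPlus and isolated on Ni–NTA. They were incubated at 200 nM for 1 h at 25 °C on a custom Agilent array, double-stranded and BSA-blocked, in PBS with 2% BSA, salmon testes DNA and 50 µM zinc acetate. The binding signal is per-feature fluorescence intensity (arbitrary units) read on an Axon 4000B scanner after washing.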
row,Sequence,binding signal
1,ACCTCCGCCTCCGCCTCCGCCTCCGTCTCCACCTCCGCCTCGGAGTCACCTAGTGCAG,8940 fluorescence intensity (a.u.)
2,GTACTGTAGTAGCCATTATTTTTTCCTGTTCATATGCTAACGGAGTCACCTAGTGCAG,12000 fluorescence intensity (a.u.)
3,GCTTTGAACACTCATCTCCTCACCGTGTTTGTTAGAGCTCCGGAGTCACCTAGTGCAG,11200 fluorescence intensity (a.u.)
4,ATCGCAAATTTGGCTTCCTTTTCACCTTTCCTCGCTTCAACGGAGTCACCTAGTGCAG,11200 fluorescence intensity (a.u.)
5,GTTCTATATGTTATAGGCTCAATTTTTTTTGTCAACTTTACGGAGTCACCTAGTGCAG,9180 fluorescence intensity (a.u.)
6,GCGCCGCCGAACCACCCTCACCACCCACCGCAGCCGCGTCCGGAGTCACCTAGTGCAG,9940 fluorescence intensity (a.u.)
7,GCCAGTCCAAACCTCACTTGACTGGAGCTAACCGCTGACGCGGAGTCACCTAGTGCAG,8140 fluorescence intensity (a.u.)
8,ATAATGGTCCGTGACATATCCATCCTTAATCCATCAATTTCGGAGTCACCTAGTGCAG,8450 fluorescence intensity (a.u.)
9,AGGCTTACCAGTTTTAGTACTACCACACTCCTACTGCACCCGGAGTCACCTAGTGCAG,10000 fluorescence intensity (a.u.)
10,GTCATTTCACCTCCCCGGCCCACGCCCGCCGCGCGGCCCACGGAGTCACCTAGTGCAG,8820 fluorescence intensity (a.u.)
11,TTCTTGCATTTGTCACTTCCCTTGATGCTTTTGATAATCACGGAGTCACCTAGTGCAG,8960 fluorescence intensity (a.u.)
12,GATGTTCCTGGCCGTGATCGAGCTCCTGCGTTCTTGCTTACGGAGTCACCTAGTGCAG,10400 fluorescence intensity (a.u.)
13,TTCTTGATGTCTCAGCTACTAGCTACCATGAGTTCAGATACGGAGTCACCTAGTGCAG,8280 fluorescence intensity (a.u.)
14,CATTCCTCTGCCTTGCAATTGGTGCGCCGTCTTCTCTCTTCGGAGTCACCTAGTGCAG,14700 fluorescence intensity (a.u.)
15,TGTTCTTATTAATACCTACAACTCTTGGTCACTCACTCTCCGGAGTCACCTAGTGCAG,8300 fluorescence intensity (a.u.)
16,CTCTGTTTCTATTGTCGTTGTTCCCTTCTTCTACTGGTAACGGAGTCACCTAGTGCAG,9450 fluorescence intensity (a.u.)
17,GTAGGTAATTTGTAGGAGTAGAGTTTTTTTTTATCAATAACGGAGTCACCTAGTGCAG,8560 fluorescence intensity (a.u.)
18,GAGATAAACCCGCACCGTCCGTCTCCGTCTCCGTCCTCTCCGGAGTCACCTAGTGCAG,9020 fluorescence intensity (a.u.)
19,CATTGGCTTTTTAATCAACATTTGATCATTCGTCTTATTCCGGAGTCACCTAGTGCAG,8490 fluorescence intensity (a.u.)
20,CCCACCACCCACCACCCACCGCCACCTTTTGTTCCGCAACCGGAGTCACCTAGTGCAG,8860 fluorescence intensity (a.u.)
21,TCCCCGACTCCGACCTCTCCGTGCGCACCCTCCCCGACCTCGGAGTCACCTAGTGCAG,8860 fluorescence intensity (a.u.)

row,Sequence,binding signal
1,AATTTCCTTGCTGACAGAAACCCTCGCAACGTGCTTTTCGCGGAGTCACCTAGTGCAG,8240 fluorescence intensity (a.u.)
2,GATTTCTTTGTTGATTTTATTGGTTTTCTCCTAATCTTGCCGGAGTCACCTAGTGCAG,8820 fluorescence intensity (a.u.)
3,GAAATCATTGACTGTCTTCTTTACCTGTTCTTTGGCAGAACGGAGTCACCTAGTGCAG,12100 fluorescence intensity (a.u.)
4,TTGAACTTCCTTGCAACATTGAATTTGTCCTATAATATGTCGGAGTCACCTAGTGCAG,9720 fluorescence intensity (a.u.)
5,CTCCGTCACTCAGATTTAATACATGACTCTCTATTATTCCCGGAGTCACCTAGTGCAG,9060 fluorescence intensity (a.u.)
6,TTACAGTAGTCCTGGAACCTCGCTTTGACCACTGTATTACCGGAGTCACCTAGTGCAG,8470 fluorescence intensity (a.u.)
7,GGGAGTATATATTTCCACGCTGCCCTTTAGTATACACCTCCGGAGTCACCTAGTGCAG,8420 fluorescence intensity (a.u.)
8,ACTATATCTCCTCGATCGGTTGCAGAGTTCAAATTGAAGTCGGAGTCACCTAGTGCAG,8270 fluorescence intensity (a.u.)
9,TCACCTTGCCTCGCCCTCGCCCTCGCCACCATCCAACGACCGGAGTCACCTAGTGCAG,9130 fluorescence intensity (a.u.)
10,GCTCTTTCTTCACATTTGCTTCTTCTGAAGTTAGTACTACCGGAGTCACCTAGTGCAG,12400 fluorescence intensity (a.u.)
11,TCAGCATAACGCACGGTGTACATCCCTTTCATCTATTTACCGGAGTCACCTAGTGCAG,11400 fluorescence intensity (a.u.)
12,CACCTCTGCACCCAATTGCTGCCGCACCCAACTGCCGCGGCGGAGTCACCTAGTGCAG,11300 fluorescence intensity (a.u.)
13,TCATCTCATCTCCTCCAAGAAACCCACCCATCTCTCTCCCCGGAGTCACCTAGTGCAG,8560 fluorescence intensity (a.u.)
14,TGGATCTGGTGTGTTAGTTTGGATTTGTGTTTGTCCTTTTCGGAGTCACCTAGTGCAG,12600 fluorescence intensity (a.u.)
15,TCTATTTCTACTCTCTTTTTATGTTTTCATGTTCGTCTGACGGAGTCACCTAGTGCAG,12100 fluorescence intensity (a.u.)
16,GGTCGCCTCCTCCACTGCTGGCCACGCCTCTCGCGCCAAGCGGAGTCACCTAGTGCAG,11200 fluorescence intensity (a.u.)
17,ATTACTTTTGTGCTGCTGTAGTGTTATTTCATAGTGGAGACGGAGTCACCTAGTGCAG,9740 fluorescence intensity (a.u.)
18,ACTTAGTTTTGACCTCATTGAAATTCAATTTAGTTCTCAGCGGAGTCACCTAGTGCAG,8100 fluorescence intensity (a.u.)
19,GCCCATGTTTCTCGGCCTTTCTTGAACACACTCTCACTATCGGAGTCACCTAGTGCAG,9890 fluorescence intensity (a.u.)
20,TACATGTCACATATTACGTCCATTTGAGTTCAATTTTTCTCGGAGTCACCTAGTGCAG,9590 fluorescence intensity (a.u.)
21,CCCCGAACACGCAGCCTCGCCACGCCACGCGCCCACGCTGCGGAGTCACCTAGTGCAG,10700 fluorescence intensity (a.u.)

# Reformatted: results already given
row | Sequence | binding signal
6 | TTACAGTAGTCCTGGAACCTCGCTTTGACCACTGTATTACCGGAGTCACCTAGTGCAG | 8470 fluorescence intensity (a.u.)
7 | GGGAGTATATATTTCCACGCTGCCCTTTAGTATACACCTCCGGAGTCACCTAGTGCAG | 8420 fluorescence intensity (a.u.)

# Source: paper PMC7819943, “Rice protein-binding microarrays: a tool to detect cis-acting elements near promoter regions in rice”
